# Assay results taken from patent US20220249438A1, “CARBOCYANINE COMPOUNDS FOR TARGETING MITOCHONDRIA AND ERADICATING CANCER STEM CELLS” (LUNELLA BIOTECH, INC., priority 2019, published 2022).
# System: MCF7 CSCs
# Test: Dye internalization in MCF7 3D-mammospheres (fluorescent microscopy)
# Format: cell-based, Human
# Settings: nano-molar range
row,SMILES,incorporation into 3D-mammospheres
1,CN1\C(=C/C=C/C=C/C=C/C2=[N+](C)c3ccccc3C2(C)C)C(C)(C)c2ccccc21 [HITC],efficiently incorporated
2,CCCN1/C(=C/C=C2\CCCC(/C=C/C3=[N+](CCC)c4ccccc4C3(C)C)=C2Cl)C(C)(C)c2ccccc21 [IR-780],not taken up
3,CCN1/C(=C/C=C/C=C/c2ccc3ccccc3[n+]2CC)C=Cc2ccccc21 [DDI],efficiently incorporated
